PubChem BioAssay AID1671195 – Yale University – 2021
Here is one part, drawn at random, of about 22,000 reagents. Of all reagents, about 1,510 (6.9%) are marked active. 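Active includes knockdowns raising or lowering LDL uptake; positive z-scores mean more uptake, negative mean less.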

Assay: 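Knockdowns that increase or decrease uptake of fluorescent LDL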 (primary screen)
Cell system: human Huh7 hepatoma cells
Knock-down reagent: siRNA pool against human genes, 18 nM
Timing: about 2 to 2.5 days of knockdown, then 8 h LDL uptake
Challenge: DiI-labelled LDL at 30 µg/ml for 8 h, in lipoprotein-deficient serum medium
Read-out: 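Fluorescent LDL signal imaged in cells, scaled to the plate median, robust z-score for each replicate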
Reading the numbers: robust z-score: higher = more LDL uptake after knockdown
Hit rule: 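a gene counts as active if at least two replicate z-scores exceed ±2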

CROCCP2 | robust z-score, replicate 1 = 0.38; robust z-score, replicate 2 = 0.319; robust z-score, replicate 3 = 0.0847; call = inactive
FABP5P10 | robust z-score, replicate 1 = 0.156; robust z-score, replicate 2 = 0.311; robust z-score, replicate 3 = 0.32; call = inactive
KCTD18 | robust z-score, replicate 1 = 0.52; robust z-score, replicate 2 = -0.399; robust z-score, replicate 3 = 0.674; call = inactive
NCAPD3 | robust z-score, replicate 1 = -0.418; robust z-score, replicate 2 = -0.233; robust z-score, replicate 3 = -0.61; call = inactive
CDC42BPB | robust z-score, replicate 1 = 1.57; robust z-score, replicate 2 = 0.955; robust z-score, replicate 3 = 1.62; call = inactive
BNC1 | robust z-score, replicate 1 = -0.379; robust z-score, replicate 2 = -0.834; robust z-score, replicate 3 = 2.15; call = inactive
TCEA2 | robust z-score, replicate 1 = -1.39; robust z-score, replicate 2 = -1.99; robust z-score, replicate 3 = -2.29; call = active
SLC22A14 | robust z-score, replicate 1 = -0.168; robust z-score, replicate 2 = 0.0593; robust z-score, replicate 3 = 0.13; call = inactive
LOC197387 (retired record) | robust z-score, replicate 1 = 0.941; robust z-score, replicate 2 = 0.467; robust z-score, replicate 3 = 1.2; call = inactive
BBS5 | robust z-score, replicate 1 = -0.423; robust z-score, replicate 2 = -0.377; robust z-score, replicate 3 = -0.442; call = inactive
CACNB2 | robust z-score, replicate 1 = 2.51; robust z-score, replicate 2 = 0.234; robust z-score, replicate 3 = 1.61; call = inactive
CRIPTO | robust z-score, replicate 1 = -1.25; robust z-score, replicate 2 = 0.0677; robust z-score, replicate 3 = 1.61; call = inactive
LOC440196 (retired record) | robust z-score, replicate 1 = 1.16; robust z-score, replicate 2 = 0.694; robust z-score, replicate 3 = 0.851; call = inactive
DNAJC17 | robust z-score, replicate 1 = 0.524; robust z-score, replicate 2 = 1.05; robust z-score, replicate 3 = 0.971; call = inactive
PARD3B | robust z-score, replicate 1 = -1.68; robust z-score, replicate 2 = -1.66; robust z-score, replicate 3 = -1.7; call = inactive
SALL4 | robust z-score, replicate 1 = 1.11; robust z-score, replicate 2 = 0.714; robust z-score, replicate 3 = 0.285; call = inactive
GSTM5 | robust z-score, replicate 1 = -0.458; robust z-score, replicate 2 = 0.104; robust z-score, replicate 3 = -0.677; call = inactive
HAT1 | robust z-score, replicate 1 = 0.538; robust z-score, replicate 2 = -0.06; robust z-score, replicate 3 = 0.735; call = inactive
ITFG2-AS1 | robust z-score, replicate 1 = -1.01; robust z-score, replicate 2 = -1.05; robust z-score, replicate 3 = -1.13; call = inactive
C1orf210 | robust z-score, replicate 1 = -1.15; robust z-score, replicate 2 = -0.909; robust z-score, replicate 3 = -1.24; call = inactive
TMEM120A | robust z-score, replicate 1 = -1.18; robust z-score, replicate 2 = -1.34; robust z-score, replicate 3 = -1.44; call = inactive
ZNF729 | robust z-score, replicate 1 = 0.536; robust z-score, replicate 2 = 0.651; robust z-score, replicate 3 = 1.28; call = inactive
SRSF9 | robust z-score, replicate 1 = 0.206; robust z-score, replicate 2 = 0.472; robust z-score, replicate 3 = 0.658; call = inactive
SLC4A5 | robust z-score, replicate 1 = 1.94; robust z-score, replicate 2 = 1.86; robust z-score, replicate 3 = 2.67; call = active

An excerpt from above, showing only “robust z-score, replicate 3”:
LOC440196 (retired record): 0.851
DNAJC17: 0.971
